Results as given in PMC7162542.
No constants are given. Whether binding was seen depends on the method and setting. In cells and extracts the contact can be indirect. Binding can be weak; no strength is given. Where a sequence is shown, tags or fusion partners need not be part of it.

Legend:
[1] = target: MDA5 N-terminal tandem CARDs; test: co-IP; HEK293 cells (control or ZFYVE1-KO) transfected with the indicated tagged plasmids for 20 h; NP-40 lysis buffer (20 mM Tris-HCl pH 7.4-7.5, 150 mM NaCl, 1 mM EDTA, 1% NP-40); antibody and GammaBind G Plus-Sepharose, 4°C, 2 h; washes with 500 mM NaCl; immunoblot
[2] = target: MDA5 middle helicase domain; test: as above

B1: ZFYVE1 (guanylate-binding protein and zinc-finger FYVE domain-containing protein), Flag- or HA-tagged (protein, UniProt Q9HBF4-1 1-777)
chain: MSAQTSPAEKGLNPGLMCQESYACSGTDEAIFECDECCSLQCLRCEEELHRQERLRNHERIRLKPGHVPYCDLCKGLSGHLPGVRQRAIVRCQTCKINLCLECQKRTHSGGNKRRHPVTVYNVSNLQESLEAEEMDEETKRKKMTEKVVSFLLVDENEEIQVTNEEDFIRKLDCKPDQHLKVVSIFGNTGDGKSHTLNHTFFYGREVFKTSPTQESCTVGVWAAYDPVHKVAVIDTEGLLGATVNLSQRTRLLLKVLAISDLVIYRTHADRLHNDLFKFLGDASEAYLKHFTKELKATTARCGLDVPLSTLGPAVIIFHETVHTQLLGSDHPSEVPEKLIQDRFRKLGRFPEAFSSIHYKGTRTYNPPTDFSGLRRALEQLLENNTTRSPRHPGVIFKALKALSDRFSGEIPDDQMAHSSFFPDEYFTCSSLCLSCGVGCKKSMNHGKEGVPHEAKSRCRYSHQYDNRVYTCKACYERGEEVSVVPKTSASTDSPWMGLAKYAWSGYVIECPNCGVVYRSRQYWFGNQDPVDTVVRTEIVHVWPGTDGFLKDNNNAAQRLLDGMNFMAQSVSELSLGPTKAVTSWLTDQIAPAYWRPNSQILSCNKCATSFKDNDTKHHCRACGEGFCDSCSSKTRPVPERGWGPAPVRVCDNCYEARNVQLAVTEAQVDDEGGTLIARKVGEAVQNTLGAVVTAIDIPLGLVKDAARPAYWVPDHEILHCHNCRKEFSIKLSKHHCRACGQGFCDECSHDRRAVPSRGWDHPVRVCFNCNKKPGDL
[1]
  binding: binds
[2]
  binding: binds
